# PubChem BioAssay AID1159591 – NIAID, 2016
# Screen: 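Effects of TLR pathway gene knock-down on R848-induced Tnf reporter in macrophages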
# Cells: mouse RAW264.7 G9 macrophage reporter clone (GFP-p65, Tnf promoter-mCherry)
# Reagents: single siRNA against mouse genes
# Duration: cells assayed 48 to 72 hours after siRNA transfection; R848 for 16 hours before fixing
# Challenge: R848 (TLR7/8 agonist) for 16 hours before fixation; dose not given
# Measurement: 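After R848 for 16 hours, nuclear Tnf promoter mCherry signal imaged minus background, scaled per plate by median and MAD into robust z against non-targeting controls, averaged across replicates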
# Direction: mean Tnf reporter z-score: higher = stronger Tnf promoter reporter signal than controls
# Call rule: 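Absolute z above 1, 1.5, 2 or 2.5 scores 25 up to 100; no stated active threshold; in practice calls fall at roughly z ≤ -1.5 or z ≥ 1.5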
# Meaning of the calls: active = reporter clearly up or down; inactive = little reporter change
# Here is one part, drawn at random, of 756 deposited reagents. In the full data, 130 (17%) were called active. 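Active calls include both lower and higher Tnf reporter signal.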 Entries without a mark were called inactive. Reagent sequences are not shown. The record does not give: the amount of reagent.
Gene,PubChem SID,mean Tnf reporter z-score
Mapk8,SID303071512,0.975
Mapk8,SID303071513,0.095
Mapk8,SID303071514,0.0329
Mapk8,SID303071515,-0.609
Mapk8,SID303071516,-1.62 (active)
Mapk8,SID303071517,0.302
Pik3r1,SID303071668,-1.59 (active)
Pik3r1,SID303071669,-0.167
Pik3r1,SID303071670,-0.178
Pik3r1,SID303071671,0.869
Pik3r1,SID303071672,-1.13
Pik3r1,SID303071673,-1.49
Map2k4,SID303071500,-0.117
Map2k4,SID303071501,0.354
Map2k4,SID303071502,-0.226
Map2k4,SID303071503,0.365
Map2k4,SID303071504,-0.79
Map2k4,SID303071505,-1.34
Mapk10,SID303071524,0.977
Mapk10,SID303071525,1.2
Mapk10,SID303071526,-0.798
Mapk10,SID303071527,1.28
Mapk10,SID303071528,-0.928
Mapk10,SID303071529,0.232
Akt3,SID303071638,-1.13
Akt3,SID303071639,0.819
Akt3,SID303071640,-0.729
Akt3,SID303071641,-0.59
Akt3,SID303071642,-0.0273
Akt3,SID303071643,-0.981
Cxcl9,SID303071866,-0.0618
Cxcl9,SID303071867,-0.39
Cxcl9,SID303071868,-0.0112
Cxcl9,SID303071869,-0.123
Cxcl9,SID303071870,-0.325
Cxcl9,SID303071871,0.195
Ptk2b,SID303071728,-0.064
Ptk2b,SID303071729,1.17
Ptk2b,SID303071730,-1.02
Ptk2b,SID303071731,-0.452
Ptk2b,SID303071732,1.16
Ptk2b,SID303071733,-0.407
Tlr2,SID303071200,0.0227
Tlr2,SID303071201,-0.222
Tlr2,SID303071202,1.26
Tlr2,SID303071203,0.885
Tlr2,SID303071204,-0.861
Tlr2,SID303071205,1.09
Elf4,SID303071800,-0.866
Elf4,SID303071801,-1.34
Elf4,SID303071802,-2.89 (active)
Elf4,SID303071803,0.0408
Elf4,SID303071804,-1.43
Elf4,SID303071805,1.4
Dusp2,SID303071920,-0.0903
Dusp2,SID303071921,-0.831
Dusp2,SID303071922,1.22
Dusp2,SID303071923,0.129
Dusp2,SID303071924,-1.03
Dusp2,SID303071925,-0.105
Ikbkg,SID303071368,0.028
Ikbkg,SID303071369,-1.24
Ikbkg,SID303071370,-0.33
Ikbkg,SID303071371,-1.84 (active)
Ikbkg,SID303071372,-1.5 (active)
Ikbkg,SID303071373,-0.0167

Reprinted from the entries so far for reference:
Gene,PubChem SID,mean Tnf reporter z-score
Mapk8,SID303071517,0.302
Pik3r1,SID303071668,-1.59 (active)
Pik3r1,SID303071669,-0.167
Pik3r1,SID303071670,-0.178
Pik3r1,SID303071671,0.869
Pik3r1,SID303071672,-1.13
Pik3r1,SID303071673,-1.49
Map2k4,SID303071500,-0.117
Map2k4,SID303071501,0.354
Map2k4,SID303071502,-0.226
Map2k4,SID303071503,0.365
Map2k4,SID303071504,-0.79
Map2k4,SID303071505,-1.34

The results go on.
Gene,PubChem SID,mean Tnf reporter z-score
Tab1,SID303071350,-0.187
Tab1,SID303071351,-1.94 (active)
Tab1,SID303071352,-0.868
Tab1,SID303071353,-0.47
Tab1,SID303071354,1.34
Tab1,SID303071355,-1.6 (active)
Il1rl1,SID303071890,1.85 (active)
Il1rl1,SID303071891,-0.94
Il1rl1,SID303071892,-1.02
Il1rl1,SID303071893,0.59
Il1rl1,SID303071894,-1.1
Il1rl1,SID303071895,-0.355
Tnf,SID303071848,-0.376
Tnf,SID303071849,1.3
Tnf,SID303071850,-0.437
Tnf,SID303071851,-0.0809
Tnf,SID303071852,0.426
Tnf,SID303071853,-1.62 (active)
Mapk11,SID303071488,1.11
Mapk11,SID303071489,-0.793
Mapk11,SID303071490,-0.428
Mapk11,SID303071491,-0.401
Mapk11,SID303071492,-0.51
Mapk11,SID303071493,0.558
Pik3cb,SID303071650,0.617
Pik3cb,SID303071651,-1.86 (active)
Pik3cb,SID303071652,-0.498
Pik3cb,SID303071653,0.303
Pik3cb,SID303071654,-3.78 (active)
Pik3cb,SID303071655,-0.659
Tradd,SID303071596,2.3 (active)
Tradd,SID303071597,-0.955
Tradd,SID303071598,-0.0661
Tradd,SID303071599,0.666
Tradd,SID303071600,-1.2
Tradd,SID303071601,1.39
Stat1,SID303071710,0.792
Stat1,SID303071711,0.0908
Stat1,SID303071712,-0.529
Stat1,SID303071713,-0.618
Stat1,SID303071714,-0.217
Stat1,SID303071715,-1.62 (active)
Map2k2,SID303071452,-0.0883
Map2k2,SID303071453,-1.2
Map2k2,SID303071454,-0.858
Map2k2,SID303071455,-0.917
Map2k2,SID303071456,-1.31
Map2k2,SID303071457,0.154
